Source: patent US20050048063A1
These are yes or no findings as the source states them, for the method shown. Some binding calls cover weakened binding; strength is not graded here.

Amino acid sequences for entries named in this document (tags omitted). A change or cut given only in a name is not applied to a line headed by its entry.
UniProt P02463: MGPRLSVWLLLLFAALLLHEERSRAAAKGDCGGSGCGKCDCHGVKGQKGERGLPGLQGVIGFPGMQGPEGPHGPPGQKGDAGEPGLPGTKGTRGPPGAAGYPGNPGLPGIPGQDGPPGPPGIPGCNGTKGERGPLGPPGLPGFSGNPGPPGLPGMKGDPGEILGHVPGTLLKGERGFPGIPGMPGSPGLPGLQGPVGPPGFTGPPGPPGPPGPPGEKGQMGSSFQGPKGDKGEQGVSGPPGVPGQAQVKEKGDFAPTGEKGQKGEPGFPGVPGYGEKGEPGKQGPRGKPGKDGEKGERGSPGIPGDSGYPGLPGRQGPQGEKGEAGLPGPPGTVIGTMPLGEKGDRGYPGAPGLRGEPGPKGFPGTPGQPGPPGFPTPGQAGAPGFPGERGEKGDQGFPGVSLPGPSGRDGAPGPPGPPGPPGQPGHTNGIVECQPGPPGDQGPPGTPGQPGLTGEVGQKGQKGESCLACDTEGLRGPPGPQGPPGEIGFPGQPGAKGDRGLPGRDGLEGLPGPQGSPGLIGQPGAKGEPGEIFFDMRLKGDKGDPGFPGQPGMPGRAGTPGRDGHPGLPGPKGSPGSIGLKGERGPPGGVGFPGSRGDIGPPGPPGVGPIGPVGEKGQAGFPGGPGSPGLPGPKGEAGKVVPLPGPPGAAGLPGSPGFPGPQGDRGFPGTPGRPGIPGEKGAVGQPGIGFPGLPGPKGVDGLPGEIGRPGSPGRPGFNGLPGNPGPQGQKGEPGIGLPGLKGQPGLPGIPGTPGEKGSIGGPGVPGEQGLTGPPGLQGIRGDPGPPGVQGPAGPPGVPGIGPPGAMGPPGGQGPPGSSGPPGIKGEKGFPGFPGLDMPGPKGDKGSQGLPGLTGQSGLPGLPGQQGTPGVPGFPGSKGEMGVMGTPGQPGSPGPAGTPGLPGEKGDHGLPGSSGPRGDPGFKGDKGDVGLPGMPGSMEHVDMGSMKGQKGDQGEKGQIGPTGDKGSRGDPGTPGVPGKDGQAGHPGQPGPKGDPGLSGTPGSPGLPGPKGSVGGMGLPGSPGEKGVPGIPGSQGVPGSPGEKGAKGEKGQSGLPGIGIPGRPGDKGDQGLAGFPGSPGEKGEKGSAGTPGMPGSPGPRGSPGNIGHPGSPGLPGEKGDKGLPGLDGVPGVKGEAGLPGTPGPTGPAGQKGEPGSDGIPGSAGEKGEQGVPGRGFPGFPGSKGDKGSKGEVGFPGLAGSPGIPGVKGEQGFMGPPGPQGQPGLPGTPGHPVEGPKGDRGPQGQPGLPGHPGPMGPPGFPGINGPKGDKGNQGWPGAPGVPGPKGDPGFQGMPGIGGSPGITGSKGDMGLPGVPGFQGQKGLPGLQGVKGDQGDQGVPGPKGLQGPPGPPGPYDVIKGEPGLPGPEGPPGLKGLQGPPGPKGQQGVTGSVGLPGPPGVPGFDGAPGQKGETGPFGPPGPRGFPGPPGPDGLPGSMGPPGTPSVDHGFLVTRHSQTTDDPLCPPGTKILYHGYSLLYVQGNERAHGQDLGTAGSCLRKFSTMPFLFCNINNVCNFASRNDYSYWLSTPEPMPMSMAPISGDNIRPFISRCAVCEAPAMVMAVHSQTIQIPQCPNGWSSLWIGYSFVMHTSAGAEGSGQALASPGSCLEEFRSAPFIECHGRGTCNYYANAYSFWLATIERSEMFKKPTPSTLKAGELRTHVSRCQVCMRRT
UniProt P02453: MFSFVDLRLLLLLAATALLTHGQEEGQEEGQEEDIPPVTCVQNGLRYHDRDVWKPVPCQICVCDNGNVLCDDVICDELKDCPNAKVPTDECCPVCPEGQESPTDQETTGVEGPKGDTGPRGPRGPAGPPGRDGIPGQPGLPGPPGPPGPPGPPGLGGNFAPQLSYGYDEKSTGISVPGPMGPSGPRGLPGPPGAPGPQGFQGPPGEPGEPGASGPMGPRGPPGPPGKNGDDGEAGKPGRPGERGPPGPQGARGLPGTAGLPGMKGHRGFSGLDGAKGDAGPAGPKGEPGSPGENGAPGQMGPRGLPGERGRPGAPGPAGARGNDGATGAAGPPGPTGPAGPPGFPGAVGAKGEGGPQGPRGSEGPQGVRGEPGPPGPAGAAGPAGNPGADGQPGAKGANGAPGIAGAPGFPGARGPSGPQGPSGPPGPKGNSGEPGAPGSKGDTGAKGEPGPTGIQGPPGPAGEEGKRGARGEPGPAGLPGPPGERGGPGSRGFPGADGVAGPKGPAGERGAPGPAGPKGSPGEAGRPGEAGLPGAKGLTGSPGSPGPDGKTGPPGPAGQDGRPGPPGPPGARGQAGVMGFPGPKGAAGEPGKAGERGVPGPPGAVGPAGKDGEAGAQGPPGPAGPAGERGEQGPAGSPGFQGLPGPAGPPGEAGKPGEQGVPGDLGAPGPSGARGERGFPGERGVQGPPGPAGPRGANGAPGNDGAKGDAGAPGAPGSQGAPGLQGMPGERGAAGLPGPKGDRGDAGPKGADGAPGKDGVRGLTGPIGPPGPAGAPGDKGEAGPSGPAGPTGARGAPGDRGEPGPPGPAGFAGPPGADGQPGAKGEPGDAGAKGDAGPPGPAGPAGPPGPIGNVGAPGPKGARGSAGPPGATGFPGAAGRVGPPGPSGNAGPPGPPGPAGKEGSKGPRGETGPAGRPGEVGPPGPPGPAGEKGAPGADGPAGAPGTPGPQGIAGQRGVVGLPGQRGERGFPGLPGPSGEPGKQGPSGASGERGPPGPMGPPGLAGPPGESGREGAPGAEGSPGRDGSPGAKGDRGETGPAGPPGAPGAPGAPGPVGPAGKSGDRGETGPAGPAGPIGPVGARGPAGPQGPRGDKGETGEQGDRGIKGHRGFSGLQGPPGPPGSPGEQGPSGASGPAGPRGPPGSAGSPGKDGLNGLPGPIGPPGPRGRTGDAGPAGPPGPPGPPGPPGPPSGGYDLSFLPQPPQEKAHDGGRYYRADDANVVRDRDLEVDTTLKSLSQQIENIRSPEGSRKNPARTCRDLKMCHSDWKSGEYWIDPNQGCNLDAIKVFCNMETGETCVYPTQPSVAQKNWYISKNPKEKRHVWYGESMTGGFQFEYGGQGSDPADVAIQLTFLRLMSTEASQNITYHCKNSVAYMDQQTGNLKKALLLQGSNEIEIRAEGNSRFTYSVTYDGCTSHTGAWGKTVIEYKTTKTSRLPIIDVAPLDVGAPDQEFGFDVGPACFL
UniProt P02465: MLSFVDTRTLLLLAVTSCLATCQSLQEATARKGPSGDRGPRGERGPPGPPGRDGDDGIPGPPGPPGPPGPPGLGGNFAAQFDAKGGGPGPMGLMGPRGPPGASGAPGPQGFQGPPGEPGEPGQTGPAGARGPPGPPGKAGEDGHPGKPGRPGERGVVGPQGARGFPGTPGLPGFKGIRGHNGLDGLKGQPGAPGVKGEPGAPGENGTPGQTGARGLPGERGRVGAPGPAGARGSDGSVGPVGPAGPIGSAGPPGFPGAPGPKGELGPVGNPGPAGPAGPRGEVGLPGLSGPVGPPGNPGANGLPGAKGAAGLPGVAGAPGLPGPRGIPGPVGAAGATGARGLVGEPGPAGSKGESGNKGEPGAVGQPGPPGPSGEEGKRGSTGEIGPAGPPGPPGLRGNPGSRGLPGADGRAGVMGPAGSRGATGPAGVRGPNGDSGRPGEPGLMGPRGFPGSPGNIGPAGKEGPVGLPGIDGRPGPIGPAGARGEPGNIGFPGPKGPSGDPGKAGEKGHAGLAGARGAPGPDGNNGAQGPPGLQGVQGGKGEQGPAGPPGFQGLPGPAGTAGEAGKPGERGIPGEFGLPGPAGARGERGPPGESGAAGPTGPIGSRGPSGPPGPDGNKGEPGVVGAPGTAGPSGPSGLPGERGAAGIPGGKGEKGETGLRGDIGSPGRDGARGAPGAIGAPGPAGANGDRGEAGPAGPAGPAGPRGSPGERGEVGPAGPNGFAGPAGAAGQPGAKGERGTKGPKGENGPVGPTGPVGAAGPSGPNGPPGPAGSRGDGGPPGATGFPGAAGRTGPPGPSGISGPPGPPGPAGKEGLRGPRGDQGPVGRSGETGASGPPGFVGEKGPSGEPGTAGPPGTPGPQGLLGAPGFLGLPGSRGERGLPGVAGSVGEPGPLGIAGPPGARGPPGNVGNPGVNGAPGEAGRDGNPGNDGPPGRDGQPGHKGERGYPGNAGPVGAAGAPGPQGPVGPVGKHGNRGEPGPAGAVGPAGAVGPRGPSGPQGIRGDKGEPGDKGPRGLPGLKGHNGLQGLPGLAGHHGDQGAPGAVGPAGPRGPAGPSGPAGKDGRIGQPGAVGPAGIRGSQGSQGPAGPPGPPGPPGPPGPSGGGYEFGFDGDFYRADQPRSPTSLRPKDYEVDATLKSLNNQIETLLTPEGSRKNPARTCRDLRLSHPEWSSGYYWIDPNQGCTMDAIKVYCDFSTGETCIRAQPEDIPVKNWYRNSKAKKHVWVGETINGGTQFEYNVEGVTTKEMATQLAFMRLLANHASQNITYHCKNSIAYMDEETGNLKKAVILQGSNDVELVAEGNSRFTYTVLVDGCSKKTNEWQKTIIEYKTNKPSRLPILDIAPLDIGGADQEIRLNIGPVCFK

Legend:
[1] = molecular target: collagen IV from Engelbreth Holm Swarm tumors (Sigma), native or boiled (UniProt P02463); experiment: phage binding to boiled (denatured) against native collagen on ELISA plate, pfu recovered
[2] = molecular target: T1, collagen I from calf skin (Sigma), native or boiled (calf) (UniProt P02453+P02465); experiment: as above
[3] = molecular target: collagen IV from Engelbreth Holm Swarm tumors (Sigma), native or boiled (UniProt P02463); experiment: phage binding to collagen-coated surface
[4] = molecular target: T1, collagen I from calf skin (Sigma), native or boiled (calf); experiment: phage binding to collagen-coated surface
[5] = molecular target: collagen IV from Engelbreth Holm Swarm tumors (Sigma), native or boiled (UniProt P02463); experiment: phage binding to collagen-coated ELISA plate, pfu recovered
[6] = molecular target: T1, collagen I from calf skin (Sigma), native or boiled (calf); experiment: as above
[7] = molecular target: collagen IV from Engelbreth Holm Swarm tumors (Sigma), native or boiled (UniProt P02463); experiment: phage binding to boiled (denatured) against native collagen
[8] = molecular target: T1, collagen I from calf skin (Sigma), native or boiled (calf); experiment: as above

Measured: binding

CREKA (peptide, not shown: large carriers) [CREKA (SEQ ID NO: 1)-displaying phage]
binds: all assays above
